End groups of sequences in plain letters are not given here.
Experiment: general procedure: Fmoc solid-phase peptide synthesis; rink amide MBHA resin
Settings: whole synthesis, reverse phase analytical HPLC on a C18 column

QPIHPNNM (N-terminal Cy5.5 via aminohexanoic acid)
final HPLC purity: >95%
